Source: PubChem BioAssay AID493014 (National Center for Advancing Translational Sciences (NCATS), 2011)
Hit rate of the full screen: of about 340,000 compounds, about 170 (0.05%) were called active. Inconclusive means that the source gave no clear call. Such entries were picked first, then a sample of the others. Calls follow the shape of the dose curve; as a rule, active = well fitted inhibition curve with a large enough effect in the signal ratio, with a control signal flat (not every such curve was filed as active); inconclusive = small, poorly fitted or top-dose-only effect, or effect the other way, or a change in a side signal; inactive = flat fitted curve, though single readings scatter; the % refers to the signal ratio. A potency beside an inconclusive call is a rough fit, not a confirmed value.
Potency is read from the fitted curve at half-maximal effect.

Assay: qHTS Assay to Find Inhibitors of Chronic Active B-Cell Receptor Signaling;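 as to activity change, negative = inhibition: plate controls were basal doxycycline-induced cells for no effect and cells given 10 µM MG132 for full effect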
Conditions: ABC-DLBCL IkBa-CBG/CBR reporter, luminescence ratio (green luciferase fused to IkBa over red control in TMD8 lymphoma cells), 4 h; activity change, negative = inhibition: at 46.1 µM (top of the series)
Outline: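 Concentration-response series (up to 46 uM) were applied to TMD8 dual-reporter cells for 4 h at 37C with doxycycline. Green/red ratio, after filter-overlap correction, defined %Activity; red signal alone was normalised to basal cells and zero luminescence.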
With `COc1cc2c(cc1OC)C(c1ccc(-c3ccc(Cl)c(Cl)c3)o1)=NCC2` the activity change, negative = inhibition was inconclusive: -29.9%.
For `COc1ccc(OC)c(NC(=S)NCC(c2cccnc2)N2CCOCC2)c1` (centres undefined), the activity change, negative = inhibition was inconclusive: -15.3%.
With `Cc1ccc(/C(O)=C2/C(=O)C(=O)N(CCN3CCOCC3)C2c2ccccn2)cc1` (centres undefined) the activity change, negative = inhibition was inconclusive: 0.0446%.
For `C=C1C[C@H]2[C@@H]3C=C(C)C4=CC(=O)CC[C@]4(C)[C@H]3CC[C@]2(C)[C@@]1(OC(C)=O)C(C)=O`, the Potency was inconclusive: 0.0058 µM [falling, full curve, poor fit].
For `CC1(c2ccccc2)NC(=O)N(CC(=O)Nc2ccc3c(c2)OCO3)C1=O` (centres undefined), the activity change, negative = inhibition was inconclusive: 24.9%.
With `C[C@@H]1CN([C@H](C)CO)C(=O)c2cc(NC(=O)Cc3cn(C)c4ccccc34)ccc2O[C@H]1CN(C)S(=O)(=O)c1ccc(F)cc1` the activity change, negative = inhibition was inconclusive: -2.95%.
For `CC(C)CC(=O)N1CCN(c2ccc(NC(=O)c3ccco3)cc2)CC1`, the activity change, negative = inhibition was “inactive”.
In the case of `CCCCOc1ccc(C(=O)N/N=C/c2ccc(OCCN3CCCCC3)c(OC)c2)cc1`, the activity change, negative = inhibition is reported as inconclusive: 0.505%.
With `Cc1ccc(C(=O)COC(=O)CNC(=O)c2ccccc2)s1` the activity change, negative = inhibition was inconclusive: 3.5%.
With `COc1cc(/C=C2\SC(=Nc3ccccc3OC)NC2=O)ccc1O` the activity change, negative = inhibition was inconclusive: -2.87%.
With `O=C1/C(=C\c2ccc(Br)cc2)SC(=S)N1NS(=O)(=O)c1ccccc1` the activity change, negative = inhibition was inconclusive: 6.09%.
With `O=C(Nc1ccc(N2CCOCC2)c(Cl)c1)c1ccc([N+](=O)[O-])o1` the Potency was inconclusive: 2.82 µM [falling, full curve, poor fit].
For `COc1cc([N+](=O)[O-])ccc1NC(=O)CCCOc1cccc(C)c1C`, the activity change, negative = inhibition was “inactive”.
In the case of `CCOC(=O)Nc1nc(-c2ccc(F)cc2F)cs1`, the activity change, negative = inhibition is reported as inconclusive: -2.68%.
In the case of `CCOc1ccc(N(C(C)C(=O)N2CCCC2)S(C)(=O)=O)cc1` (centres undefined), the activity change, negative = inhibition is reported as “inactive”.
In the case of `CNS(=O)(=O)c1cc(Cl)ccc1Sc1ccccc1C(=O)O`, the activity change, negative = inhibition is reported as inconclusive: 11.5%.
In the case of `O=C(Nc1ccccc1C(=O)N1CCN(CCO)CC1)c1cccc([N+](=O)[O-])c1`, the Potency is reported as inconclusive: 28.2 µM [falling, single point].
For `CCOC(=O)C(C)NC(=O)CCc1nnc2ccc(N3CCC(C)CC3)nn12` (centres undefined), the activity change, negative = inhibition was “inactive”.
In the case of `O=C(NNC1=NS(=O)(=O)c2ccccc21)c1ccccc1Cl`, the Potency is reported as inconclusive: 31.6 µM [rising, single point].
In the case of `COc1ccc2c(c1)nc(SCC(O)c1ccccc1)n2C` (centres undefined), the Potency is reported as inconclusive: 35.5 µM [falling, partial curve, poor fit].
With `COc1cc(CNCCCSc2nnnn2C)cc(Br)c1OC` the activity change, negative = inhibition was “inactive”.
In the case of `O=C(O)c1cccnc1Sc1ccccc1`, the activity change, negative = inhibition is reported as “inactive”.
In the case of `CC(C)(C)c1ccc(Cn2nnc3c(=O)[nH]c(C4CCN(C(=O)c5ccco5)CC4)nc32)cc1`, the activity change, negative = inhibition is reported as “inactive”.
With `O=C(Nc1ccccc1Cl)c1cccc(COc2cc(Cl)ccc2Cl)c1` the activity change, negative = inhibition was inconclusive: 13.4%.
For `CC(C)(Oc1ccc(Cl)cc1)C(=O)NCC1CCCO1` (centres undefined), the activity change, negative = inhibition was “inactive”.
In the case of `O=C(O)CN1C(=O)/C(=C\c2ccccc2OCc2ccc(Cl)cc2Cl)SC1=S`, the Potency is reported as inconclusive: 35.5 µM [falling, single point].
In the case of `COc1nc(OC)nc(N2CCC(NC(=O)C(Cc3ccc(C(C)C)cc3)NC(C)=O)CC2)n1` (centres undefined), the activity change, negative = inhibition is reported as inconclusive: 4.41%.
For `O=C(O)c1ccc(-n2c(=O)c3ccccc3c3ccccc3c2=O)cc1`, the Potency was inconclusive: 0.794 µM [falling, full curve, poor fit].
With `CN1C(=O)C(c2nnc(Nc3cccc4ccccc34)s2)C2CC1(C)Oc1ccccc12` (centres undefined) the activity change, negative = inhibition was inconclusive: -5.3%.
In the case of `COC(=O)C1(CC2CC(c3ccc(Cl)cc3)=NO2)CCN(C(=O)OC(C)(C)C)CC1` (centres undefined), the activity change, negative = inhibition is reported as “inactive”.
With `COc1ccc(S(=O)(=O)N(C)C[C@@H]2Oc3ccc(NS(=O)(=O)c4cn(C)cn4)cc3C(=O)N([C@@H](C)CO)C[C@@H]2C)cc1` the activity change, negative = inhibition was inconclusive: 1.69%.
With `COc1cc(OC)c(NC(C)C(=O)NCc2ccccc2)cc1Cl` (centres undefined) the Potency was inconclusive: 0.316 µM [falling, partial curve, poor fit].
With `CC(C)(C)c1ccc(S(=O)(=O)NCC(=O)Nc2ccc(-c3nc4ccccc4s3)cc2)cc1` the Potency was inconclusive: 18.4 µM [rising, partial curve, poor fit].
In the case of `COC(=O)N1C(=O)[C@@](CC(C)C)(c2ccccc2)N1C(=O)OC`, the Potency is reported as inconclusive: 11.2 µM [falling, partial curve].
For `CCOc1cc(C(=O)Nc2cccc3ncccc23)cc(OCC)c1OCC`, the activity change, negative = inhibition was inconclusive: -20.8%.
For `COCc1cc(C)nc2sc(C(=O)Nc3nccs3)c(N)c12`, the activity change, negative = inhibition was “inactive”.
For `CCc1ccc(NC(=O)Nc2ccsc2C(=O)OC)cc1`, the activity change, negative = inhibition was inconclusive: -196%.
With `CCCn1c(NC(=O)c2ccc([N+](=O)[O-])o2)nc2ccccc21` the Potency was inconclusive: 2.31 µM [rising, partial curve, poor fit].
For `Fc1ccc(Cn2ccc(-c3cnc(-c4ccccc4)s3)n2)cc1`, the Potency was inconclusive: 2.91 µM [rising, partial curve].
In the case of `COC(=O)c1ccccc1NC(=O)NC1CCCCC1`, the Potency is reported as inconclusive: 12.6 µM [falling, partial curve].
In the case of `COCc1cc(=O)[nH]c(Nc2nc3ccccc3o2)n1`, the Potency is reported as inconclusive: 4.47 µM [rising, full curve, poor fit].
In the case of `Cc1ccc(OC(=O)c2ccc3nc(C)sc3c2)cc1`, the activity change, negative = inhibition is reported as “inactive”.
For `CCOC(=O)c1cc(-c2cc3ccccc3o2)n[nH]1`, the activity change, negative = inhibition was inconclusive: -9.23%.
For `CCCn1c(N2CCN(C(=O)Nc3ccccc3)CC2)nc2ccccc21`, the activity change, negative = inhibition was inconclusive: 8.76%.
With `Cc1ccc(S(=O)(=O)/N=C2/NC(=O)/C(=C/c3ccncc3)S2)cc1` the activity change, negative = inhibition was “inactive”.
With `CCNC(=O)CC1C(=O)N(c2ccc(C)cc2)C(=O)N1CCc1ccc(OC)c(OC)c1` (centres undefined) the activity change, negative = inhibition was inconclusive: 7.05%.
For `CC(=O)c1ccc(NC(=O)CCCN2C(=O)C(c3ccccc3)Oc3cccnc32)cc1` (centres undefined), the activity change, negative = inhibition was inconclusive: 4.26%.
With `Cc1ccc(/C=N/NC(=O)c2cc(-c3ccc(C)o3)[nH]n2)cc1` the Potency was inconclusive: 11.2 µM [falling, partial curve].
For `O=C(COC(=O)c1ccccc1[N+](=O)[O-])NCCCc1ccccc1`, the activity change, negative = inhibition was inconclusive: 1.5%.
In the case of `CC(C)OC(=O)C(C)Nc1n[nH]c(=S)[nH]c1=O` (centres undefined), the activity change, negative = inhibition is reported as inconclusive: 6.86%.
With `Cc1cccc(C)c1NC(=O)N1CCN(c2nc3ccccc3s2)CC1` the activity change, negative = inhibition was inconclusive: 8.25%.
With `N#Cc1c2ccc(O)cc2n2ccccc12` the activity change, negative = inhibition was inconclusive: 22.2%.
With `Oc1ccccc1Nc1nc(NCc2ccccc2)c2ccccc2n1` the activity change, negative = inhibition was inconclusive: 23.8%.
With `Cc1ccc(NC(=S)NC(=O)c2ccccc2)cc1NC(=S)NC(=O)c1ccccc1` the Potency was inconclusive: 0.447 µM [falling, full curve, poor fit].
With `Cc1ccc2[nH]c(=O)c(CN(CCCO)S(=O)(=O)c3cccc4nsnc34)cc2c1` the activity change, negative = inhibition was “inactive”.
With `CCOC(=O)c1csc(NC(=O)c2cccs2)n1` the activity change, negative = inhibition was inconclusive: -7.11%.
For `Cc1cc(/C=C(\C#N)C(=O)NC2CCCCCC2)c(C)[nH]1`, the Potency was inconclusive: 20.6 µM [falling, partial curve].
With `Cc1cc(N2CCCCC2)n2ncc(-c3ccc(Cl)cc3)c2n1` the activity change, negative = inhibition was inconclusive: -44.9%.
For `CCn1cc(C(=O)N2CCN(c3ccccc3OC)CC2)c2cc(OC)c(OC)cc2c1=O`, the activity change, negative = inhibition was “inactive”.
With `CC(Sc1nnc(CC(C)c2ccccc2)n1N)C(N)=O` (centres undefined) the activity change, negative = inhibition was inconclusive: 0.25%.
For `O=C(Cn1nc(-c2ccccc2)ccc1=O)Nc1ccc(N2CCN(C(=O)c3cccs3)CC2)cc1`, the activity change, negative = inhibition was inconclusive: 20%.
For `S=C(Nc1ccccc1Cl)N1CCCC(c2ccccc2)=N1`, the Potency was inconclusive: 2 µM [falling, full curve, poor fit].
For `COC(C(=O)N/N=C(\C)c1ccc(C(C)(C)C)cc1)c1ccccc1` (centres undefined), the Potency was inconclusive: 6.31 µM [rising, full curve, poor fit].
For `O=C(Nc1ccc(Cl)c(NC(=O)c2cccs2)c1)c1ccco1`, the Potency was inconclusive: 11.2 µM [falling, partial curve, poor fit].
With `O=C(c1ccccc1)N1N=C(c2ccccc2O)CC1c1ccccc1` (centres undefined) the activity change, negative = inhibition was “inactive”.
In the case of `COc1cc(C#Cc2ccc3cc(CCO)oc(=O)c3c2)cc(OC)c1`, the activity change, negative = inhibition is reported as inconclusive: -18.8%.
With `CC(C)c1ccc(C(=O)Nc2ccc(N3CCOCC3)cc2)cc1` the activity change, negative = inhibition was inconclusive: -0.312%.
With `CCCCN(C)c1nc(-c2ccco2)c2c(c1C#N)CC(C)(C)OC2` the activity change, negative = inhibition was inconclusive: 16%.
In the case of `COc1cccc(/C=N/Nc2cc(N3CCOCC3)ncn2)c1O`, the activity change, negative = inhibition is reported as inconclusive: 6.08%.
For `CCCCN(CCCC)CCn1cnc2c([nH]c3ccc(OC)cc32)c1=O`, the activity change, negative = inhibition was inconclusive: 10.3%.
In the case of `CC(C)c1ccc(N=Cc2c(O)c3ccccc3oc2=O)cc1`, the activity change, negative = inhibition is reported as inconclusive: -14.4%.
With `Cc1ccc(C(=O)NC(=S)NCC(=O)c2ccccc2)cc1` the activity change, negative = inhibition was inconclusive: 6.09%.
In the case of `CCCCNC(=O)COC(=O)C1CCN(S(=O)(=O)c2ccc3c(c2)OCCO3)CC1`, the activity change, negative = inhibition is reported as inconclusive: -2.89%.
With `O=C(Nc1ccc2[nH]ccc2c1)c1cccs1` the Potency was inconclusive: 25.1 µM [falling, single point].
In the case of `c1ccc(N=C(c2cccs2)N2CCOCC2)cc1`, the Potency is reported as inconclusive: 4.61 µM [falling, single point].
With `CCCC(=N)C1=C(O)CC(CC(C)SCC)CC1=O` (centres undefined) the activity change, negative = inhibition was inconclusive: 1.82%.
With `CC(=O)OCc1ccccc1Sc1ccccc1C(=O)NCc1ccccc1` the activity change, negative = inhibition was “inactive”.
For `CC(C)(C)C(=O)NCc1ccc(C(=O)CSc2nnc(-c3ccncc3)n2C2CC2)s1`, the activity change, negative = inhibition was “inactive”.
In the case of `O=C(Oc1c(CN2CCOCC2)cc(Cl)c2cccnc12)c1ccccc1Cl`, the Potency is reported as inconclusive: 1.58 µM [falling, full curve, poor fit].
